According to PubChem BioAssay AID493014 (National Center for Advancing Translational Sciences (NCATS), 2011):
The campaign covered roughly 340,000 compounds. About 170 (0.05%) were called active. The inconclusive results got no clear call from the source; some entries with a clear call stand among them for comparison. The call rests on the fitted dose curve; in most records, active means well fitted inhibition curve with a large enough effect in the signal ratio, with a control signal flat (not every such curve was filed as active); inconclusive means small, poorly fitted or top-dose-only effect, or effect the other way, or a change in a side signal; inactive means flat fitted curve, though single readings scatter; the % refers to the signal ratio. Where the call is inconclusive, the potency comes from a doubtful curve fit.

Test: qHTS Assay to Find Inhibitors of Chronic Active B-Cell Receptor Signaling;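 on activity change, negative = inhibition: plate controls were basal doxycycline-induced cells for no effect and cells given 10 µM MG132 for full effect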
Details: ABC-DLBCL IkBa-CBG/CBR reporter, luminescence ratio (green luciferase fused to IkBa over red control in TMD8 lymphoma cells), 4 h; activity change, negative = inhibition: at 46.1 µM (top of the series)
Procedure, shortened: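 Cell line TMD8 (human ABC DLBCL), stably expressing tet-inducible CBG68-IkBa fusion and CBR; IMDM/0.5% FBS; cpd up to 46 uM; dox induction, 4 h, 37C/5% CO2; dual luminescence; green/red ratio; MG132 control.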
Potency means the concentration at half of the fitted maximal effect.

Structure (SMILES)	activity change, negative = inhibition	Potency
COC(=O)N/N=C/c1c(C)c(C(=O)c2ccc(F)cc2)n2ccccc12	inconclusive: 0.924%	
Cc1cc2nc(N3CCN(C(=O)c4ccco4)CC3)sc2cc1C	inconclusive: 8.66%	
CCN(CC(O)Cn1c2ccccc2c2ccccc21)S(=O)(=O)c1ccc(F)cc1 (centres undefined)		inconclusive: 29.1 µM [falling, single point]
COc1ccc(Cl)cc1NC(=O)CN1C(=O)CC(C)S(=O)(=O)c2ccccc21 (centres undefined)	inconclusive: 0.0831%	
O=C(COc1ccc(Cl)cc1Cl)NCCC1=CCCCC1	inconclusive: 8.94%	
CCOc1ccc2nc(SCC(=O)c3ccc(C)s3)sc2c1	inconclusive: -12.8%	
O=C(CCN1C(=O)/C(=C/c2ccc3c(c2)OCO3)SC1=S)Nc1cccc(C(=O)O)c1		inconclusive: 11.2 µM [falling, partial curve]
CCCCCCn1c2c(c(=N)c3c1CCC3)CCC2	inactive: 1.72%	
Cc1ccc(C2=NOC3(CC(=O)N(c4ccccc4)C3=O)C2)cc1 (centres undefined)	inactive: 4.57%	
COc1ccccc1CNC(=O)CC(C)c1ccccc1 (centres undefined)	inconclusive: 18.6%	
CCC(=O)Nc1ccc(C(=O)c2ccccc2)cc1		inconclusive: 35.5 µM [falling, single point]
COc1ccc(S(=O)(=O)N(CC(=O)Nc2ccc(F)c(Cl)c2)c2ccc(C)cc2)cc1OC		inconclusive: 12.6 µM [rising, single point]
CCOc1ccc(/C=C/C(=O)OCC(=O)NCCc2ccc(OCC)c(OCC)c2)cc1OC	inactive: -2.25%	
CC(C(=O)Nc1ccc(Cl)cc1)c1ncc(C(F)(F)F)cc1Cl (centres undefined)		inconclusive: 23.1 µM [rising, partial curve, poor fit]
CN(Cc1ccccc1)C(=S)NC(=O)c1ccccc1	inconclusive: 0.184%	
COc1cc(NC(=O)CN2CCCCC2)c(C)cc1[N+](=O)[O-]	inconclusive: 14.4%	
CC(=O)N1CCN(S(=O)(=O)c2cccc(C(=O)Nc3ccc(OC(F)F)cc3)c2)CC1	inactive: -1.05%	
Cc1nnc(SCC(=O)Nc2ncc(Cl)cc2Cl)n1Cc1ccccc1		inconclusive: 18.4 µM [rising, partial curve, poor fit]
CC1=C(C(=O)OC(C)C)C(C)NC(=O)N1 (centres undefined)	inconclusive: -1.04%	
CCOC(=O)c1csc(COc2ccccc2Cl)n1	inconclusive: -2.2%	

No new results follow: entries from further up.
Structure (SMILES)	activity change, negative = inhibition	Potency
Cc1nnc(SCC(=O)Nc2ncc(Cl)cc2Cl)n1Cc1ccccc1		inconclusive: 18.4 µM [rising, partial curve, poor fit]
CC1=C(C(=O)OC(C)C)C(C)NC(=O)N1 (centres undefined)	inconclusive: -1.04%	
CCOC(=O)c1csc(COc2ccccc2Cl)n1	inconclusive: -2.2%	

The listing continues:

Structure (SMILES)	activity change, negative = inhibition	Potency
COc1ccc(C2C(C(=O)c3ccccc3)N3c4ccccc4C=CC3C2[N+](=O)[O-])cc1 (centres undefined)	inconclusive: 5.4%	
CCOc1ccc(-c2[nH]nc3c2C(c2ccc(O)cc2)C(C#N)=C(N)O3)cc1 (centres undefined)	inconclusive: -17.9%	
OC(COc1cccc2ccccc12)CN1CCN(c2ccccn2)CC1 (centres undefined)		inconclusive: 35.5 µM [falling, partial curve, poor fit]
CC(=O)c1sc(NC(=O)CCN2C(=O)C3CC=CCC3C2=O)nc1-c1ccccc1 (centres undefined)	inconclusive: 0.316%	
COc1ccc(N2CCN(CCNC(=O)Nc3ccc(C)c(Cl)c3)CC2)cc1	inactive: -2.47%	
CCOc1ccccc1OCC(=O)Nc1ccc(S(=O)(=O)N(C)C)cc1	inconclusive: -4.59%	
O=C(CCNc1ccc(Cl)cc1)c1cccs1	inactive: -5.66%	
CC1(C)CC2CC(C)(CN2S(=O)(=O)c2ccc(C(=O)Nc3cc(S(=O)(=O)N4CCOCC4)ccc3Cl)cc2)C1 (centres undefined)	inactive: 4.71%	
COCCn1nnnc1C(C(C)C)N(Cc1ccccc1)Cc1cc2cc(OC)ccc2[nH]c1=O (centres undefined)		inconclusive: 11.6 µM [falling, partial curve]
COc1cc(SC)ccc1C(=O)NNC(=O)c1cc(C)oc1C		inconclusive: 20.6 µM [falling, partial curve]
O=C(Nc1ccccc1)C1=C[C@@H](c2coc3ccccc3c2=O)C[C@@H](OCc2ccc(CO)cc2)O1	inactive: -11.6%	
CN1CCC(=NNC(=O)C(=O)Nc2ccccc2F)CC1		inconclusive: 22.4 µM [falling, partial curve]
Cc1cc(CNC(=O)c2ccc(C)c([N+](=O)[O-])c2)c2ccccc2n1		inconclusive: 25.1 µM [falling, single point]
O=C(Nc1ccc2c(c1)OCCO2)NC1CCCCC1		inconclusive: 29.1 µM [rising, single point]
Cc1cc(C)nc(N/N=C/c2c(C)oc3ccccc23)n1	inconclusive: 13.1%	
N#Cc1ccccc1COC(=O)c1ccc2c(c1)OCO2	inconclusive: 3.1%	
Cc1ccsc1/C=N/NC(=O)c1ccncc1		inconclusive: 22.4 µM [falling, single point]
CCOC(=O)N/N=C/c1cn(Cc2ccc(F)cc2)c2ccccc12	inconclusive: 0.599%	
COc1ccc2c(c1)[C@H]1[C@H](CO2)[C@H](c2ccccc2)[C@]2(C)C(=O)Nc3cc(F)c(F)cc3C(=O)N12	inconclusive: 6.85%	
